# Results of single-concentration screens

Source: ChEMBL document CHEMBL3988442, “University of Dundee, Small-Polar-MMV Screening Library” (2021).

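Phenotypic screen: M. tuberculosis growth, glucose 7H9 medium, 3 days; the read-out is not stated. Compounds at 500 µM. The record gives no direction; compounds that gave an IC50 in retests scored well above the rest, so higher reads as more growth inhibition. Size under these conditions: about 18,000 compounds, about 1,400 of them at 50% or above in at least one test.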

Each number is a percent effect as filed.
How 0% and 100% were set is not recorded. Most values in the screen are low, and negative values occur.
Compounds were drawn at random from those tested, without regard to their results.

| SMILES | percent effect |
|---|---|
| `CCC1(C(N)=O)CCCN(C(=O)c2cn[nH]c2)C1` (stereo unspecified) | 3.155% |
| `CN(C)C(=O)CNc1ccc(OC(C)(C)C)cc1` | -4.374% |
| `Nc1ccc(Br)c(=O)[nH]1` | -15.93% |
| `NCCCc1ccc2c(c1)OCCO2` | 31.09% |
| `Cc1ccc(C(=O)NCC(c2ccco2)N(C)C)o1` (stereo unspecified) | 13.06% |
| `NC(=O)CN(Cc1ccccc1)C(=O)C1CCCO1` (stereo unspecified) | 4.451% |
| `O=C(CN1CCn2ccnc2C1)NCC(F)(F)F` | -4.872% |
| `NCc1ccc(NC(=O)CCN2CCCC2)cc1` | 0.4663% |
| `CCN1CC(C(=O)Nc2ccc(Br)cn2)CC1=O` (stereo unspecified) | -4.827% |
| `COC(=O)CCCNC(=O)COc1cccc(OC)c1` | 48.46% |
| `N#CCc1nccc2ccccc12` | 7.297% |
| `CS(=O)(=O)N1CCC(NCCSc2cnn[nH]2)CC1` | 9.275% |
| `CC(C)(C)c1noc(CN2CCSCC2)n1` | 9.603% |
| `Cn1c(=O)n(C)c2cc(S(N)(=O)=O)ccc21` | -16.62% |
| `CC(C)(C(=O)OCC(N)=O)c1ccccc1` | 16.63% |
| `Cc1ccc(OC(C)CN)cc1` (stereo unspecified) | 86.47% |
| `OCCCNC(c1ccccc1)c1ccccn1` (stereo unspecified) | 51.75% |
| `CC(Cn1cccn1)NC(=O)CN1CCOC1=O` (stereo unspecified) | -14.51% |
| `CCNC(=O)c1cc2ccccc2n1C` | 39.45% |
| `CCS(=O)(=O)N(C)C(=O)CCc1c[nH]c2ccccc12` | 94.26% |
| `CCN(C(=O)CSc1nncs1)C1CCS(=O)(=O)C1` (stereo unspecified) | 7.672% |
| `CC(C)CN(C)C(=O)NCc1nnc2n1CCCCC2` | -4.738% |
| `COc1cc(Br)ccc1CN` | 7.963% |
| `CC(N)CCc1ccc2c(c1)OCO2` (stereo unspecified) | 69.76% |
| `COCCNC(=O)[C@@H](N)Cc1ccccc1` | 0.9472% |
| `CCc1nnc2n1CC(N)CC2` (stereo unspecified) | 1.656% |
| `COC(C)C(=O)NCCN(C)C(C)C` (stereo unspecified) | -11.39% |
| `Cc1nn(C)c(C)c1CC(N)=O` | 6.181% |
| `Cc1ccc(NC(=O)N2CCN(C)C(CO)C2)c(Cl)c1` (stereo unspecified) | 37.23% |
| `CC(C)(CC(N)=O)NC(=O)C1CCC(F)(F)CC1` | 8.104% |
| `NC(=O)Nc1cccc(C(=O)NCC2CCCCO2)c1` (stereo unspecified) | 27.49% |
| `NC(=O)c1ccc(NC(=O)CCN2CCSCC2)cc1` | -0.3219% |
| `CNC(=O)c1c(N)cnn1C` | 14.67% |
| `CCc1ncc(C(=O)NCCNc2cnccn2)s1` | 24.49% |
| `O=C(CCn1cccc1)N1CCn2nc(CO)cc2C1` | 0.06253% |
| `CC(=O)N1CC(NC(=O)C2=CCCCCC2)C1` | 5.649% |
| `C[C@@]1(O)CCN(C(=O)CCc2cn[nH]c2)C[C@@H]1O` | 5.87% |
| `COCCC1(CO)CCCN(Cc2csc(C)n2)C1` (stereo unspecified) | 9.847% |
| `O=C(NCc1ccccc1OCCO)NCC(F)(F)F` | 42.52% |
| `CC(C)c1nsc(NCC2=COCCO2)n1` | 38.79% |
| `CC(C)N1CC2CCC(C1)C2N` (stereo unspecified) | -2.701% |
| `CC(C)CC(=O)NCc1ccnc(N2CCCC2)c1` | 13.9% |
| `Cc1c(C(=O)NCC(N)=O)oc2ccc(Cl)cc12` | 52.57% |
| `Cc1cscc1-c1cccc(C(=O)N(C)C)n1` | 40.57% |
| `CC(C)C(CCO)NC(=O)c1nccc2ccccc12` (stereo unspecified) | -6.193% |
| `COCC(CCO)NC(=O)CCCc1ccccc1` (stereo unspecified) | 1.367% |
| `N#CCS(=O)(=O)N1CCCCC1` | 6.028% |
| `OC1(c2scnc2Br)CCNCC1` | -3.576% |
| `CCn1nnc2c(cnn2-c2ccccc2)c1=O` | -3.617% |
| `O=C([C@@H]1CCCN1)N1CCCC1c1cccnc1` (stereo partly specified) | 3.747% |
| `NC1CCN(CCN2CCOCC2)C1` (stereo unspecified) | -9.97% |
| `Cc1cnn(CC(=O)NC2CCc3c(O)cccc32)c1` (stereo unspecified) | -10.74% |
| `O=C(Nc1cc(C(F)(F)F)ccn1)C1CCOC1` (stereo unspecified) | 5.012% |
| `COc1ccc(F)cc1C(=O)Nc1cnns1` | -2.302% |
| `CC(O)CN(CCN)C(=O)OC(C)(C)C` (stereo unspecified) | 3.72% |

Repeated from the top, 5 entries:

SMILES	percent effect
CCC1(C(N)=O)CCCN(C(=O)c2cn[nH]c2)C1 (stereo unspecified)	3.155%
CN(C)C(=O)CNc1ccc(OC(C)(C)C)cc1	-4.374%
Nc1ccc(Br)c(=O)[nH]1	-15.93%
NCCCc1ccc2c(c1)OCCO2	31.09%
Cc1ccc(C(=O)NCC(c2ccco2)N(C)C)o1 (stereo unspecified)	13.06%